{"source": "patent US20260226101A1", "about": "(priority 2023, published 2026)", "assay": "general procedure: Fmoc solid-phase peptide synthesis", "details": "whole synthesis, 215 nm, scale of the general procedure 0.1-10 mmol, >10-200 mmol", "note": "Ends that are not written are not given here."}
{"substance": "FAKKFAK", "values": [{"measurement": "final HPLC purity", "result": 99.2, "unit": "%"}]}
